Consider one sequence from paper PMC9905709.

Chains of the proteins cited; added tags and fusions are not shown. A change or cut given only in a name is not applied to a line headed by its entry. Chains listed by the source or under a name are the forms on record and can include a tag or linker.
UniProt Q16629: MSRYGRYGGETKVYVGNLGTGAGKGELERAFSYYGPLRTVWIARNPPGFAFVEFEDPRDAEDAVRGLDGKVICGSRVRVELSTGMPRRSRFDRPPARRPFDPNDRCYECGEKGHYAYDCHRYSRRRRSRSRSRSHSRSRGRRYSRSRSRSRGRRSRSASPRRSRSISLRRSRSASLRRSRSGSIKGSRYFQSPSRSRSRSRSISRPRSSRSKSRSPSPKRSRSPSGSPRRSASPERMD
DROSHA D3-G2 complex (DROSHA fragment D3 + DGCR8 fragment G2) (human), one chain, as listed by the source, chain 1 of 2: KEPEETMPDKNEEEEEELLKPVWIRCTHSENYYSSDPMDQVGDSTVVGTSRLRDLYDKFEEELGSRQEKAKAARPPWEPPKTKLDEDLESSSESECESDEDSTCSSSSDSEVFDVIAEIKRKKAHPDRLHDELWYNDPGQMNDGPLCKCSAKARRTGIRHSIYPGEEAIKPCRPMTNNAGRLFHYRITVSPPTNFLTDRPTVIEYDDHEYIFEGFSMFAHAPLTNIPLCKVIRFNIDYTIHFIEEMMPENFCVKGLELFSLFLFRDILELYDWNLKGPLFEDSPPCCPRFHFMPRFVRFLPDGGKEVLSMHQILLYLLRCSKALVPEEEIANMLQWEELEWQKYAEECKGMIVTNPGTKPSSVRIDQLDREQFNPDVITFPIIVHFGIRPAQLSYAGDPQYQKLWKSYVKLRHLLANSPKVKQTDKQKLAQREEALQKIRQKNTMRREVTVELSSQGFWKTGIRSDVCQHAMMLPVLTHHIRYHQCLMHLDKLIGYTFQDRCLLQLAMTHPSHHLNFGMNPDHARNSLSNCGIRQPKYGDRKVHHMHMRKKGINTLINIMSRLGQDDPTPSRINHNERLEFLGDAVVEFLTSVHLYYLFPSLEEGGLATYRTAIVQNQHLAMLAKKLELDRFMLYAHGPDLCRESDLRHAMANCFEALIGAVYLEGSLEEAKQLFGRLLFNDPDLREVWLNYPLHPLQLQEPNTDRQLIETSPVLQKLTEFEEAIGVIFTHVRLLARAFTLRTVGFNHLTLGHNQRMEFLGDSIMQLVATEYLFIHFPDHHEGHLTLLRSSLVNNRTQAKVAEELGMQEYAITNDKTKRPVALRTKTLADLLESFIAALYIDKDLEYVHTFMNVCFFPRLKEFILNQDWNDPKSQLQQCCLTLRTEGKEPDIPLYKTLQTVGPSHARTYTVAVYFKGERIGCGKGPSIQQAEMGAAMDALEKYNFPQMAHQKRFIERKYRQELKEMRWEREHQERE
DROSHA D3-G2 complex (DROSHA fragment D3 + DGCR8 fragment G2) (human), one chain, as listed by the source, chain 2 of 2: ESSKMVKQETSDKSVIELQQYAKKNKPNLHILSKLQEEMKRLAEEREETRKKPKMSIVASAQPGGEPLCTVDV

Data set [1] concerns DROSHA D3-G2 complex (DROSHA fragment D3 + DGCR8 fragment G2) (human). Put plainly: EMSA. The note with it: 2 mM EDTA, 10 pmol DROSHA (legend, Methods say 20 pmol), 2 pmol RNA, EMSA: 50 mM Tris-HCl pH 7.5, 125 mM NaCl, 10% glycerol, 0.2 mg/ml BSA, 1 mM DTT, 12 ul, on ice 1 h, 4% native PAGE, 1x TBE, 4 C, ethidium bromide, recombinant protein. For orientation: Mobility shift assays separate free from complexed probe on a gel.

In a further data set the target is SRSF7 (human) (UniProt Q16629). Put plainly: EMSA. The note with it: 2 mM EDTA, 26 pmol SRSF7, 2 pmol RNA, EMSA: 50 mM Tris-HCl pH 7.5, 125 mM NaCl, 10% glycerol, 0.2 mg/ml BSA, 1 mM DTT, 12 ul, on ice 1 h, 4% native PAGE, 1x TBE, 4 C, ethidium bromide, recombinant protein, protein details: C-terminal GFP and 10xHis.

The exact form of at least one protein or probe is not confirmed. At least one verdict was read from the data and is not stated in words by the source.

With “GGGCGGACAGACAGACAGUGCAGUCACCCAUAAAGUAGAAAGCACUACUAACAGCACUGGAGGGUGUAGUGUUUCCUACUUUAUGGAUGAGUGUACUGUGGGCUUCGG [pri-miR-142 (CNNC, CUUC WT)]”, the binding result (in data set [1]; in the data set with SRSF7 (human)) was “binds” each time.
